Values from PubChem BioAssay AID652272 (Drosophila RNAi Screening Center, 2013)
In all, the deposit lists about 21,000 reagents; shown is a random part of those with a known target gene and a result. Of all reagents, 503 (2.4%) got an active call. 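Raw plate light values, not normalised; calls rest on replicate z-scores that were not deposited; hits include reporter decreases as well as increases.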 Unmarked entries are inactive. Names joined by + are all predicted targets of the reagent. The record does not give: the amount of reagent, the time to read-out.

- Assay: 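Genome-wide knock-down search for components of Hedgehog signalling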 (primary screen)
- System: Drosophila clone 8 (Cl8) cells
- Reagent: long dsRNA against Drosophila genes
- Measurement: 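Plate reader light from a firefly reporter under a ptc promoter fragment that responds to Hedgehog, with Renilla light as transfection reference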
- Scale: firefly Hh reporter signal: higher = more ptc reporter light; Renilla reference signal: higher = more Renilla control light
- Rule for the call: 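Hit when the z-score averaged over two replicates is under -2 or over +3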
- Meaning of the calls: active = hit: reporter lowered or raised; inactive = not a hit

| Target gene | DRSC id | firefly Hh reporter signal, replicate 1 | firefly Hh reporter signal, replicate 2 | firefly Hh reporter signal, replicate 3 | Renilla reference signal, replicate 1 | Renilla reference signal, replicate 2 |
| --- | --- | --- | --- | --- | --- | --- |
| Nt5b (5' nucleotidase B) | DRSC19976 | 1.91e5 | 94601 | – | 4278 | 2425 |
| Nt5b (5' nucleotidase B) | DRSC19977 | 99003 | 3.50e5 | – | 2580 | 13796 |
| Nt5b (5' nucleotidase B) | DRSC19978 | 80739 | 2.78e5 | – | 2371 | 10192 |
| pic (piccolo) | DRSC16639 | 1.09e5 | 95872 | – | 4178 | 3544 |
| Fa2h (Fatty acid 2-hydroxylase) | DRSC06608 | 78276 | 44084 | – | 1816 | 3873 |
| Fa2h (Fatty acid 2-hydroxylase) | DRSC06609 | 78803 | 60982 | – | 2035 | 4774 |
| Mekk1 | DRSC16302 | 94380 | 84293 | – | 4032 | 3163 |
| Mekk1 | DRSC16303 | 7.62e5 | 1.34e5 | – | 39728 | 3365 |
| CG31161 | DRSC16144 | 5.02e5 | 95440 | – | 26466 | 3211 |
| CR43670 + grp + CR43671 + 1 more | DRSC03541 | 82484 | 66890 | – | 3057 | 2592 |
| His2Av (Histone H2A variant) | DRSC16702 | 1.35e5 (active) | 81100 | – | 1672 | 1222 |
| asRNA:CR31514 + CG12947 | DRSC14575 | 58567 | 1.27e5 | – | 1969 | 3138 |
| CG7166 | DRSC11809 | 88230 | 95505 | – | 3180 | 2952 |
| CG11537 | DRSC08200 | 89891 | 61859 | – | 3458 | 2656 |
| CG13003 | DRSC19522 | 98331 | 1.97e5 | – | 2344 | 7127 |
| Rh6 (Rhodopsin 6) | DRSC16823 | 64947 | 1.14e5 | – | 2333 | 3335 |
| CG14258 | DRSC14753 | 83536 | 1.01e5 | – | 2563 | 3338 |
| CG10581 | DRSC11623 | 91472 | 1.50e5 | – | 3281 | 4309 |
| CG4393 | DRSC15573 | 6.54e5 | 1.22e5 | – | 29773 | 2352 |
| tkv (thickveins) | DRSC00860 | 7.10e5 | 2.78e5 | – | 30041 | 13312 |
| tkv (thickveins) | DRSC03623 | 59610 | 66440 | – | 2508 | 2365 |
| CG15544 | DRSC15082 | 87274 | 1.60e5 | – | 1972 | 6524 |
| CG5664 | DRSC11782 | 4.84e5 | 89734 | – | 4589 | 4589 |
| Cdc50 (Cell division cycle 50) | DRSC20224 | 59461 | 1.98e5 | – | 1516 | 8146 |
| CG11694 | DRSC14354 | 75108 | 91560 | – | 1449 | 3043 |
| Nep5 (Neprilysin 5) | DRSC16004 | 84923 | 73653 | – | 2267 | 2248 |
| Poxm (Pox meso) | DRSC16793 | 1.43e5 | 7.61e5 | 2.11e5 | 5027 | 5654 |
| Prps (Phosphoribosyl pyrophosphate synthetase) | DRSC08994 | 1.15e5 | 2.49e5 | – | 2689 | 9290 |
| Prps (Phosphoribosyl pyrophosphate synthetase) | DRSC10707 | 24427 | 59828 | 77153 | 4648 | 4538 |
| Prps (Phosphoribosyl pyrophosphate synthetase) | DRSC10708 | 46520 | 1.04e5 | 82611 | 7421 | 5936 |
| CG32639 | DRSC18972 | 3.27e5 | 1.51e5 | – | 18944 | 3894 |
| ImpL1 (Ecdysone-inducible gene L1) | DRSC11197 | 89590 | 36048 | – | 4132 | 1270 |
| CG15651 | DRSC04242 | 64835 | 61521 | – | 2352 | 5079 |
| Bcat (Branched chain amino acid transaminase) | DRSC19756 | 77772 | 2.40e5 | – | 2262 | 9417 |
| CG15446 | DRSC20518 | 1.05e5 | 2.01e5 | – | 4534 | 9127 |
| CG15635 | DRSC00470 | 1.31e5 | 7.62e5 | 63553 | 3171 | 41984 |
| CG14797 + CG32809 | DRSC18562 | 60626 | 2.11e5 | – | 1957 | 7904 |
| CG34126 | DRSC02726 | 1.40e5 | 55417 | – | 3632 | 5498 |
| CG7903 | DRSC16338 | 1.02e5 | 1.27e5 | – | 4274 | 4073 |
| Eig71Ei | DRSC11156 | 1.64e5 | – | – | 6597 | 4647 |
| CG30375 | DRSC06834 | 97048 | 45219 | – | 2698 | 4048 |
| Mnat9 (microtubule-associated Nat9) | DRSC14325 | 95852 | 1.46e5 | – | 3451 | 6551 |
| Mcad (Medium-chain acyl-CoA dehydrogenase) | DRSC09871 | 1.03e5 | 66578 | – | 4177 | 2572 |
| Gem4b + Gem4c | DRSC17294 | 4.41e5 | 2.51e5 | – | 20973 | 4312 |
| Mettl3 (Methyltransferase like 3) | DRSC15921 | 5.27e5 | 1.12e5 | – | 25990 | 2836 |
| Parp16 (Poly(ADP-ribose) polymerase 16) | DRSC06597 | 1.04e5 | 51160 | – | 2688 | 3704 |
| cib (ciboulot) | DRSC18660 | 5.58e5 | 1.07e5 | 1.85e5 | 4320 | 3787 |
| Grl62a (Gustatory receptor-like 62a) | DRSC07963 | 1.20e5 | 1.99e5 | – | 3558 | 8908 |
| Agpat2 (1-Acylglycerol-3-phosphate O-acyltransferase 2) | DRSC03532 | 75276 | 41649 | – | 3260 | 1137 |
| mip40 (Myb-interacting protein 40) | DRSC06541 | 1.05e5 | 81189 | – | 6342 | 4139 |
| Coq7 + shf | DRSC18448 | 84539 | 1.99e5 | – | 3648 | 8372 |
| Atg8b (Autophagy-related 8b) | DRSC14501 | 5.21e5 | 95401 | – | 20812 | 2472 |
| Qsox2 (Quiescin sulfhydryl oxidase 2) | DRSC15287 | 1.05e5 | 66288 | – | 4168 | 2832 |
| Blimp-1 | DRSC10496 | 62752 | 54728 | – | 5664 | 4363 |
| CG4364 | DRSC02742 | 27491 | 30070 | – | 1725 | 1645 |
| CG45105 | DRSC15002 | 35436 | 39653 | – | 1232 | 1385 |
| CG45105 | DRSC15833 | 48928 | 38051 | – | 2086 | 1101 |

Targets above whose gene name begins with N or n (4):
| Target gene | DRSC id | firefly Hh reporter signal, replicate 1 | firefly Hh reporter signal, replicate 2 | firefly Hh reporter signal, replicate 3 | Renilla reference signal, replicate 1 | Renilla reference signal, replicate 2 |
| --- | --- | --- | --- | --- | --- | --- |
| Nt5b (5' nucleotidase B) | DRSC19976 | 1.91e5 | 94601 | – | 4278 | 2425 |
| Nt5b (5' nucleotidase B) | DRSC19977 | 99003 | 3.50e5 | – | 2580 | 13796 |
| Nt5b (5' nucleotidase B) | DRSC19978 | 80739 | 2.78e5 | – | 2371 | 10192 |
| Nep5 (Neprilysin 5) | DRSC16004 | 84923 | 73653 | – | 2267 | 2248 |
